No constants are given. Whether binding was seen depends on the method and setting. In cells and extracts the contact can be indirect. Some binding calls cover weakened binding; strength is not graded here. Where a sequence is shown, tags or fusion partners need not be part of it.
Assays:
Assay in all cases: FRET or BRET
YFP-PIP5Kα = YFP-PIP5Kα (UniProt Q99755)
YFP-PIP5Kβ = YFP-PIP5Kβ (UniProt O14986)
GFP-PIP5Kγ90 = GFP-PIP5Kγ90 (UniProt O60331)

By UniProt entry, the sequences of proteins in these tests, tags left out.
UniProt Q99755: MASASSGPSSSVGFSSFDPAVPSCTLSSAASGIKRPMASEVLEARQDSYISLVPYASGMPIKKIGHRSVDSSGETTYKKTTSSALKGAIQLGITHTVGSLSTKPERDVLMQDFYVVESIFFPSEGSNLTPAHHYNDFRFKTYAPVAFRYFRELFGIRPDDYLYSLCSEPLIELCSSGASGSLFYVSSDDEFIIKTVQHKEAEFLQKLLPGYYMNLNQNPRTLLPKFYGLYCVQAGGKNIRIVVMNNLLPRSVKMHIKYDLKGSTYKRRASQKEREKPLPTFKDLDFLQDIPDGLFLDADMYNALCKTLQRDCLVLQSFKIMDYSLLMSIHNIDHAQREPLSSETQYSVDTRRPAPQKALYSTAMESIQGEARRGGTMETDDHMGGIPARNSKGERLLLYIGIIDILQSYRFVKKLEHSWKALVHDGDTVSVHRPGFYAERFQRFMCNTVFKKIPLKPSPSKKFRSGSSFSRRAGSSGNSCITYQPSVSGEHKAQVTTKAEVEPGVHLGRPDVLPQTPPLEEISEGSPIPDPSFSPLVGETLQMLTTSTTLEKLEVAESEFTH
UniProt O14986: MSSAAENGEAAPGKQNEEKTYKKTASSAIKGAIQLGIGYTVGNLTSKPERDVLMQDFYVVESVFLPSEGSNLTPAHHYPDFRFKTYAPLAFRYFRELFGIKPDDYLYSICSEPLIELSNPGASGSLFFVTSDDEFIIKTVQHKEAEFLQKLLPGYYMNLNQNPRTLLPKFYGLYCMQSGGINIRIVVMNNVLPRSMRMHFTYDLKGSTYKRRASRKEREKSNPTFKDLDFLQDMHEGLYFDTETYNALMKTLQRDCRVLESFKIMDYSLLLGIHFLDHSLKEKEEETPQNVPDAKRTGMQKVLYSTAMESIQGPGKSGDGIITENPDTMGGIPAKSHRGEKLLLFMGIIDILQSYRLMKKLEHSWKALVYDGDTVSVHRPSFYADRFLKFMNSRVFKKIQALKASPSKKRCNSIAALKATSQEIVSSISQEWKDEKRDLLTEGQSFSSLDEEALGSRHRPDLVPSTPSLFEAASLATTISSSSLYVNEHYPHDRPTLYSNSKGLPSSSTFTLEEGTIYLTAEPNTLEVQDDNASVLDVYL
UniProt O60331: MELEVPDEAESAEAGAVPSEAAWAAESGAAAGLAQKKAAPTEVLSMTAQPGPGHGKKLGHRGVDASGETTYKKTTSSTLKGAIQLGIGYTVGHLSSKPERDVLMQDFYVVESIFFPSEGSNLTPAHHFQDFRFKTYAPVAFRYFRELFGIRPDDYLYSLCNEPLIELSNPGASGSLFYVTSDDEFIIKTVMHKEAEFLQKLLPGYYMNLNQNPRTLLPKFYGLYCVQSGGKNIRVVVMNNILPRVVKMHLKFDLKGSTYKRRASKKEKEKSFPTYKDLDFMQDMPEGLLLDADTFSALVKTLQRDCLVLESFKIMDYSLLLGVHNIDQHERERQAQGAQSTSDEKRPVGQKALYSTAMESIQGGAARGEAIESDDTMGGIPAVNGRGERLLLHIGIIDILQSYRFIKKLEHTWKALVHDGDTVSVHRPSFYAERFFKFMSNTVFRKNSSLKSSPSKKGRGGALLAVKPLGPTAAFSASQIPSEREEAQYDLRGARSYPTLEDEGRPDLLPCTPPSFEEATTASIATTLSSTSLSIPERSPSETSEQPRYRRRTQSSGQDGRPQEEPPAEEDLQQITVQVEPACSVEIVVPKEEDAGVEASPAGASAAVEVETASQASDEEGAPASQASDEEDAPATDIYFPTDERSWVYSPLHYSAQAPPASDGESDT

binding (YFP-PIP5Kα): binds | binding (YFP-PIP5Kβ): binds | binding (GFP-PIP5Kγ90): binds
B1: mCherry-tagged phosphatidylinositol 4-phosphate 5-kinase homolog (PIPKH) (protein, UniProt Q5T9C9 1-394)
chain: MAAPSPGPREVLAPSPEAGCRAVTSSRRGLLWRLRDKQSRLGLFEISPGHELHGMTCMMQAGLWAATQVSMDHPPTGPPSRDDFSEVLTQVHEGFELGTLAGPAFAWLRRSLGLAEEDYQAALGPGGPYLQFLSTSKSKASFFLSHDQRFFLKTQGRREVQALLAHLPRYVQHLQRHPHSLLARLLGVHSLRVDRGKKTYFIVMQSVFYPAGRISERYDIKGCEVSRWVDPAPEGSPLVLVLKDLNFQGKTINLGPQRSWFLRQMELDTTFLRELNVLDYSLLIAFQRLHEDERGPGSSLIFRTARSVQGAQSPEESRAQNRRLLPDAPNALHILDGPEQRYFLGVVDLATVYGLRKRLEHLWKTLRYPGRTFSTVSPARYARRLCQWVEAHTE

From paper doi:10.1101/377465
